# Results from the supplement of paper PMC7666118.
# By UniProt entry, the sequences of proteins in these tests, tags left out. Where a name states a change or a piece, a line headed by the entry shows the natural chain unless it says otherwise.
# UniProt P56192: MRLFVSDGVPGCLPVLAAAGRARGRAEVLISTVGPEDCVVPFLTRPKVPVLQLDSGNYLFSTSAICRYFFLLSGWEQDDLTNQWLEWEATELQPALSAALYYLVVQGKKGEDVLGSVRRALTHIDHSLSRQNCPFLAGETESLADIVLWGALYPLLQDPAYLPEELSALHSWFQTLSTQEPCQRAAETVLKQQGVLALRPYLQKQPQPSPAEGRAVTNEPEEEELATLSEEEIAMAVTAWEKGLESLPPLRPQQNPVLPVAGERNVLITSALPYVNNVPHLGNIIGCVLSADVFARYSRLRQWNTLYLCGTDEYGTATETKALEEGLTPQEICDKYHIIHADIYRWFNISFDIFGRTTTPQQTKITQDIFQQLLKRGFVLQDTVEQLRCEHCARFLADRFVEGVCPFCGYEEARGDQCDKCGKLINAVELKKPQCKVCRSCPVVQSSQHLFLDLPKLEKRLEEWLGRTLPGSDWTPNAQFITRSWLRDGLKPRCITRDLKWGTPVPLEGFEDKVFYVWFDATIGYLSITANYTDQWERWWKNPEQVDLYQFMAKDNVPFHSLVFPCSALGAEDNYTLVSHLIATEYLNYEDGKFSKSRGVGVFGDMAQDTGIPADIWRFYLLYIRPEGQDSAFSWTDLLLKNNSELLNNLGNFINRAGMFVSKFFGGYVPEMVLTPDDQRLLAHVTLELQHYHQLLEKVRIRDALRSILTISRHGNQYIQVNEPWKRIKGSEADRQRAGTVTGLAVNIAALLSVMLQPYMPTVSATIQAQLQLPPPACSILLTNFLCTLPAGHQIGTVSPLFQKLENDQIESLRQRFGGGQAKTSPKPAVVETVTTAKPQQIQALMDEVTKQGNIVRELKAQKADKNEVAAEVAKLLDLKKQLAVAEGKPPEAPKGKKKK
# UniProt Q9UIC8: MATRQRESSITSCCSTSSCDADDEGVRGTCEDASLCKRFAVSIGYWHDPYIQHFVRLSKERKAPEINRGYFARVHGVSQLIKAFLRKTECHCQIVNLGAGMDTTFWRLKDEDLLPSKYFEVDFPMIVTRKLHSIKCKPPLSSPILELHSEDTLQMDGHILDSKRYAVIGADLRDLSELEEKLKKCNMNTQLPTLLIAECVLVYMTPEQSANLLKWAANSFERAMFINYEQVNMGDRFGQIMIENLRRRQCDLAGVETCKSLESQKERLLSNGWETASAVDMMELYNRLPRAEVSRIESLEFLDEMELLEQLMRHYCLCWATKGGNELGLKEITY
# UniProt Q9Y4W2: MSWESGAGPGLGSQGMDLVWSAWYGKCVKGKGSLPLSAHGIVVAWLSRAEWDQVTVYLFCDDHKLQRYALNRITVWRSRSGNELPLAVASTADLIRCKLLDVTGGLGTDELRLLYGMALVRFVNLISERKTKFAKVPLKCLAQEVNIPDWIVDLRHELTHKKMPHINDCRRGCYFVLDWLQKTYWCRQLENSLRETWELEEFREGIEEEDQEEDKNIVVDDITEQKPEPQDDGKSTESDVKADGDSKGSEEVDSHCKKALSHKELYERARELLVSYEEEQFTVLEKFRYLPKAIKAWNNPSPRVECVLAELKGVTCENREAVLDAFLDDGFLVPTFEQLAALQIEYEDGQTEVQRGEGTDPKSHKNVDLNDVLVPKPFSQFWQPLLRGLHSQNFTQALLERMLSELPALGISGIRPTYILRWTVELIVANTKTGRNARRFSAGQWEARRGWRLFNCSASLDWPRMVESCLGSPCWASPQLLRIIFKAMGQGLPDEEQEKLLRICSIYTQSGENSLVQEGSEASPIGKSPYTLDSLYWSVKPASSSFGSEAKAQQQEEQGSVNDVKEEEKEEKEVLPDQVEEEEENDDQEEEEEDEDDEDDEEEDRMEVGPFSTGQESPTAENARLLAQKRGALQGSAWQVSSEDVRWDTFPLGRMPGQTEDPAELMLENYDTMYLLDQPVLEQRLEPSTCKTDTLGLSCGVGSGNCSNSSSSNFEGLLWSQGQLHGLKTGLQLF
# UniProt Q9NR56: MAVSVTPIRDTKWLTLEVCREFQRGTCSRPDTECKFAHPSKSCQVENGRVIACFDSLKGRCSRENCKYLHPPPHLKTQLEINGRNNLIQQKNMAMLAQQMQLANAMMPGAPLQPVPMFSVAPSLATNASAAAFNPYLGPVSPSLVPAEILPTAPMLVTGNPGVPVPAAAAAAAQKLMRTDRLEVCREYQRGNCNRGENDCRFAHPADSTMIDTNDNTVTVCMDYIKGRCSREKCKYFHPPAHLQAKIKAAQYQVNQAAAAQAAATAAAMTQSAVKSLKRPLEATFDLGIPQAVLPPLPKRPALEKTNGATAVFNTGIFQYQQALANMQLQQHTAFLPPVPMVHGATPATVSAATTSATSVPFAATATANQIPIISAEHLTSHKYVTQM
# UniProt Q538Z0: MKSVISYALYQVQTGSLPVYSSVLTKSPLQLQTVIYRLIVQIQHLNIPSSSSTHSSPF
# UniProt P09382, whole entry: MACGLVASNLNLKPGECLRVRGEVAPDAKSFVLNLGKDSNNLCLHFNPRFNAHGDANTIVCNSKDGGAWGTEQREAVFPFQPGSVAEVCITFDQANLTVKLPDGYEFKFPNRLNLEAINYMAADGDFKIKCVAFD
# UniProt Q659C4: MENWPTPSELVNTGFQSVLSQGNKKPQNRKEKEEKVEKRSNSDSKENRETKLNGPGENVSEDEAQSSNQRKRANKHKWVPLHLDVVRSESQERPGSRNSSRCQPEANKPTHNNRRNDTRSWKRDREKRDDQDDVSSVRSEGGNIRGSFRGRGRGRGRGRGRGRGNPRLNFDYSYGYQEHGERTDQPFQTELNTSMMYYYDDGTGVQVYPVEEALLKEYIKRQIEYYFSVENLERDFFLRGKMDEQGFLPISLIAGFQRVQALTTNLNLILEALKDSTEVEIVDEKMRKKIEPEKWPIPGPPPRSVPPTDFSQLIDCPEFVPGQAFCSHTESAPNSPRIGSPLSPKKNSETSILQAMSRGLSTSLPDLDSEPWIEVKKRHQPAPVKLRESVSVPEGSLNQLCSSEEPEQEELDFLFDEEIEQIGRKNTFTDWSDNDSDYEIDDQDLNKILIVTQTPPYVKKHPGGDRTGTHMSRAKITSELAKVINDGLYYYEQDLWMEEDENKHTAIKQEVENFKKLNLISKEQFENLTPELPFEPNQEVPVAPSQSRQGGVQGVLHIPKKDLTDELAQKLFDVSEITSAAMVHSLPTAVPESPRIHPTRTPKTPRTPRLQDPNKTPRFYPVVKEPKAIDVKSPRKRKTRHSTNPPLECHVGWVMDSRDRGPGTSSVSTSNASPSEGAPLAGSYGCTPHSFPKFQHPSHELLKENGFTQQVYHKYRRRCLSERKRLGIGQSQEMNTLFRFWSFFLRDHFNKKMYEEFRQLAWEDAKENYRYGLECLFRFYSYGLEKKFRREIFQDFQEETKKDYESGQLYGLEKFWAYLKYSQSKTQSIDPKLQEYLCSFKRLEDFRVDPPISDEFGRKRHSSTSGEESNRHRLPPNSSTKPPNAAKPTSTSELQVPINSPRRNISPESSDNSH
# UniProt Q8WZA0: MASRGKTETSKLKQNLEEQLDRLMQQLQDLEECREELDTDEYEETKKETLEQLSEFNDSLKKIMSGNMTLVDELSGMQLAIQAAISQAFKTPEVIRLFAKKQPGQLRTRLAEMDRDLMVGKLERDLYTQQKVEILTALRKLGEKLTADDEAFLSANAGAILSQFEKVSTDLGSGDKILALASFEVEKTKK
# UniProt O95983: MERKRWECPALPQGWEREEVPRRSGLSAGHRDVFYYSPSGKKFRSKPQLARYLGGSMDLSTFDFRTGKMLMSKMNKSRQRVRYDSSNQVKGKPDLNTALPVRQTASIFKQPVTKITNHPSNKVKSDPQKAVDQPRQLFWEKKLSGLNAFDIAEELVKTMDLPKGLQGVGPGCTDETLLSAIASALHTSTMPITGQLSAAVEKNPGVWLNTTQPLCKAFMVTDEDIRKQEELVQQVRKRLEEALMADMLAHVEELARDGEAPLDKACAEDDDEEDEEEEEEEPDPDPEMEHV
# UniProt Q6PJG9: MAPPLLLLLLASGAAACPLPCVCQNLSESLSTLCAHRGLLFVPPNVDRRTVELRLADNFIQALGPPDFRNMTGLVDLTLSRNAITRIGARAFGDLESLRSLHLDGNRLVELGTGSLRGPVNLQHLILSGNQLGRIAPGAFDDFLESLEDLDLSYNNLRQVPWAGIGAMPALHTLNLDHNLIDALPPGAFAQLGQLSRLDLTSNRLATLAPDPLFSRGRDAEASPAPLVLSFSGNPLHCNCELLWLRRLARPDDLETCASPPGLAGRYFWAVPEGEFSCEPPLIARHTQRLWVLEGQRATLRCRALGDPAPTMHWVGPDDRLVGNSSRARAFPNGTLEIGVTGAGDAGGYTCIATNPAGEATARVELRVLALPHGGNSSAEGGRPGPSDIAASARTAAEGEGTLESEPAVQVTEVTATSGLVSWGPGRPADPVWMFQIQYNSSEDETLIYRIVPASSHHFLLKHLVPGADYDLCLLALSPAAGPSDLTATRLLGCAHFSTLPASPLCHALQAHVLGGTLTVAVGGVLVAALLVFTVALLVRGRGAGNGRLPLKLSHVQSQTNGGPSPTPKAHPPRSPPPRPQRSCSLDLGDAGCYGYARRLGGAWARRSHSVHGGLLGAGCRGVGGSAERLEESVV
# UniProt Q13257, whole entry: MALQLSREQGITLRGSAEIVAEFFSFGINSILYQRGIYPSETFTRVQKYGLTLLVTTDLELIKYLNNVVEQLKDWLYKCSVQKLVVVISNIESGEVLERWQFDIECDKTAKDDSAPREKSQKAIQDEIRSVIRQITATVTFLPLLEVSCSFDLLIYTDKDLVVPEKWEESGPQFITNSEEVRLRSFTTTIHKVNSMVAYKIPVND
# UniProt P46734: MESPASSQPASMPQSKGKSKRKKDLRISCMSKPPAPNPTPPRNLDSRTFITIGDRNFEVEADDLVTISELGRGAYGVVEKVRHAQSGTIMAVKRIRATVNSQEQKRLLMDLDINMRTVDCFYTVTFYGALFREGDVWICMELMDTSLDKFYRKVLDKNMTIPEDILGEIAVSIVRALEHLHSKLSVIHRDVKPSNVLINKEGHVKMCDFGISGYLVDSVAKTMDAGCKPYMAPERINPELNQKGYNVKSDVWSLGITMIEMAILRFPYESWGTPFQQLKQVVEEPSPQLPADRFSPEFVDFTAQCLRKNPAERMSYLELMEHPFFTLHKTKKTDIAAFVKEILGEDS
# UniProt P27448: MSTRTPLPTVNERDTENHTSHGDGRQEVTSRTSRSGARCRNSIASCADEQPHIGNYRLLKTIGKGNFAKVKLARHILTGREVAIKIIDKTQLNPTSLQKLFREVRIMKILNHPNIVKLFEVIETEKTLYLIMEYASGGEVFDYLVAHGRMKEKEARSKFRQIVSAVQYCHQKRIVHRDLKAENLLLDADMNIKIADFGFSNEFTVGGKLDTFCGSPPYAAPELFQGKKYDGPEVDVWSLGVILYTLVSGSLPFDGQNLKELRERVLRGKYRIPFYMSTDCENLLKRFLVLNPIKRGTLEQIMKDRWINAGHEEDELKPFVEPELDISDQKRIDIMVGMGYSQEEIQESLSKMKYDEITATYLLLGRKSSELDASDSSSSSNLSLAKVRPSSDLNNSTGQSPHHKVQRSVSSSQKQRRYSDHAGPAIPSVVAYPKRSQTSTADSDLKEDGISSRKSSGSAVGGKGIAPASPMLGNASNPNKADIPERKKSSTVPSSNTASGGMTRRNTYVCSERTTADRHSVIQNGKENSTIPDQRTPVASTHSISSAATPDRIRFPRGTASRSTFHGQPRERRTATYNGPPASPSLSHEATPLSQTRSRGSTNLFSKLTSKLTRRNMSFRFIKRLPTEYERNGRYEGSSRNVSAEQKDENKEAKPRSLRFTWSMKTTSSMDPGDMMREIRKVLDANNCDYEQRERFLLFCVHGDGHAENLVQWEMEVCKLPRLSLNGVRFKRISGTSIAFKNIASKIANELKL
# UniProt Q9Y383: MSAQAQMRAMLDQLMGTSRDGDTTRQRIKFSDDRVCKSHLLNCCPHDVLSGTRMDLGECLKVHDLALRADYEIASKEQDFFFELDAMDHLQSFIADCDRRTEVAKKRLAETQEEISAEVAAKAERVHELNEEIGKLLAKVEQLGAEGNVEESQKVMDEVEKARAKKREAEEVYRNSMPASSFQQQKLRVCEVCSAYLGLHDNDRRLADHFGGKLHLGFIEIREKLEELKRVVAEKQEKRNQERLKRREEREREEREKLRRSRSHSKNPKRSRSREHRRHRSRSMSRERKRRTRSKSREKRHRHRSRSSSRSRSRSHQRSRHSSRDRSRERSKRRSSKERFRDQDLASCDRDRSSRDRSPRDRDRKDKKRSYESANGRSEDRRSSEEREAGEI
# UniProt O75608: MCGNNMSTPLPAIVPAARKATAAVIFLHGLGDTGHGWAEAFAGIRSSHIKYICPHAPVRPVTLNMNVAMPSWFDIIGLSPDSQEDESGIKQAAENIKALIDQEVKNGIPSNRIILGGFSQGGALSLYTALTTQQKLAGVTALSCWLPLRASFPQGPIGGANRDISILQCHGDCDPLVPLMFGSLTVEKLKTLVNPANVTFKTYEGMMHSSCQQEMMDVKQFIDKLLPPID
# Some of the results follow.
# Compound: COc1ccc(Cn2ccc3cc(C)c(C(=O)NO)cc32)cc1
# Experiment: dose-dependent thermal stabilisation call (2D-TPP, DLPTP, 10% FDR) (binary (1 = stabilised)); higher = stabilised by the compound
# Details: system: HL-60 intact cells; concentration range 0.04-10 µM
# Method: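 2D thermal proteome profiling in intact HL-60 cells treated with BRD-3811 (0, 0.04, 0.29, 2, 10 uM) for 90 min at 37 C, then heated 3 min at one of 12 temperatures (42-63.9 C). Soluble protein was quantified by TMT10 MS. The value is the DLPTP call of the paper: dose-dependent thermal stabilisation over all temperatures at 10% FDR (F-test of a dose-response against a flat model); one experiment, one call per tested protein.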
row,Target,dose-dependent thermal stabilisation call
1,LLGL1 (UniProt Q15334),inactive: 0
2,LOC27320,inactive: 0
3,MARS (UniProt P56192),inactive: 0
4,LRP6 (UniProt O75581),inactive: 0
5,MAPRE2 (UniProt Q15555),inactive: 0
6,LCMT1 (UniProt Q9UIC8),inactive: 0
7,LAS1L (UniProt Q9Y4W2),inactive: 0
8,MCM2 (UniProt P49736),inactive: 0
9,LARP7 (UniProt Q4G0J3),inactive: 0
10,MAP2K1 (UniProt Q02750),inactive: 0
11,MAP4K1 (UniProt Q92918),inactive: 0
12,LOC388474,inactive: 0
13,MBNL1 (UniProt Q9NR56),inactive: 0
14,LOC729148,inactive: 0
15,LUZP6 (UniProt Q538Z0),inactive: 0
16,LIG3 (UniProt P49916),inactive: 0
17,LAPTM5 (UniProt Q13571),inactive: 0
18,MAP3K7IP2 (UniProt Q9NYJ8),inactive: 0
19,KTELC1 (UniProt Q8NBL1),inactive: 0
20,MAPK1IP1L (UniProt Q8NDC0),inactive: 0

row,Target,dose-dependent thermal stabilisation call
1,MDP-1,inactive: 0
2,MDN1 (UniProt Q9NU22),inactive: 0
3,MAP1S (UniProt Q66K74),inactive: 0
4,LYPLAL1 (UniProt Q5VWZ2),inactive: 0
5,LGALS1 (UniProt P09382),inactive: 0
6,LARP2 (UniProt Q659C4),inactive: 0
7,LZIC (UniProt Q8WZA0),inactive: 0
8,MBD3 (UniProt O95983),inactive: 0
9,LRFN4 (UniProt Q6PJG9),inactive: 0
10,MAD2L1 (UniProt Q13257),inactive: 0
11,MAP2K3 (UniProt P46734),inactive: 0
12,MAFG (UniProt O15525),inactive: 0
13,MACC1 (UniProt Q6ZN28),inactive: 0
14,MARK3 (UniProt P27448),inactive: 0
15,MAGT1 (UniProt Q9H0U3),inactive: 0
16,LRBA (UniProt P50851),inactive: 0
17,MCM3 (UniProt P25205),inactive: 0
18,LUC7L2 (UniProt Q9Y383),inactive: 0
19,LYPLA1 (UniProt O75608),inactive: 0
20,LRRC8C (UniProt Q8TDW0),inactive: 0

# Individual results from the list.
# dose-dependent thermal stabilisation call with MCM3 (UniProt P25205) reads inactive: 0
# dose-dependent thermal stabilisation call with LYPLAL1 (UniProt Q5VWZ2) reads inactive: 0
# dose-dependent thermal stabilisation call with LUC7L2 (UniProt Q9Y383) reads inactive: 0
